In patent US20220185844A1, “PEPTIDE-DERIVED THERAPEUTICS TARGETING SET8 FOR THE TREATMENT OF CANCER” (NUVOBIO CORPORATION, priority 2019, published 2022) one finds binding data, which are given here for 26 molecules.

These are yes or no findings as the source states them, for the method shown. Some binding calls cover weakened binding; strength is not graded here. Sequences can lack the tags named with a protein.

The target of test [1] is T1, Recombinant Set8-His6x, pHIS2 Set8(191-352) (Homo sapiens (Human)) (UniProt Q9NQR1).
T1 sequence: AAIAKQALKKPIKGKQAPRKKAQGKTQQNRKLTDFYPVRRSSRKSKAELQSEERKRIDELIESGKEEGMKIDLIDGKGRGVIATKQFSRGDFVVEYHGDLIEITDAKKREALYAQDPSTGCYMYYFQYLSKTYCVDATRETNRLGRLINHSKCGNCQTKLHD
Nature of the test: OPAL/SPOT peptide arrays probed with 1 µM Set8-His6x, anti-His-HRP chemiluminescence.

Test [2] concerns the target T1, Recombinant Set8-His6x, pHIS2 Set8(191-352) (Homo sapiens (Human)). Nature of the test: fluorescent polarization.

Consider THHHKHPGK [EP 16], for which the binding result in test [1] is “binds”.

Regarding THHHKHPHG [EP 14], the binding entry in test [1] is recorded as “binds”.

With THHHKHPGG (also called EP 18; EP18) [KBL9], the binding entry in test [1] is recorded as “binds”.

Regarding THHHKHPKA [EP 15], in test [1], the binding entry is given as “binds”.

Take THHHKHPGH [EP 13]: the binding entry in test [1] is listed as “binds”.

For THHHKHPHT [EP 4], the binding result in test [1] is reported as “binds”.

As to THHHKHPEG [EP 12], the binding entry in test [1] is “binds”.

For the molecule THHHKHPHK (also called EP 6) [KBL2], the binding result in test [1] is “binds”.

Regarding THHHKHPGQ (also called EP 19) [KBL8], the binding entry in test [1] was “binds”.

For the molecule THHHKHPHQ (also called EP 8) [KBL15], the binding result in test [1] is reported as “binds”.

Turning to THHHKHPGR (also called EP 21) [KBL4], the binding result in test [1] is on record as “binds”.

Take THHHKHPEQ (also called EP 7) [KBL13]: in test [1], the binding result was “binds”.

SHHHKHPHG (also called EP 24) [KBL10]: the binding result in test [1] is “binds”.

As to THHHKHPGA (also called EP 22) [KBL6], in test [1], the binding result is “binds”.

In the case of THHHKHPKH [EP 3], the binding entry in test [1] is given as “binds”.

In the case of THHHKHPGG (fluorescein label; position of the label not stated for the polarization assay) [fluorescein-labeled KBL9], the binding result in test [2] is reported as “binds”.

With THHHKHPHH [EP 2], the binding result in test [1] is “binds”.

With SHHHKHPGT [EP 20], the binding result in test [1] is reported as “binds”.

For SHHHKHPGH [EP 25], the binding entry in test [1] was “binds”.

In the case of THHHKHPKK [EP 17], the binding result in test [1] was “binds”.

As to THHHKHPKT [EP 5], in test [1], the binding result was “binds”.

Consider THHHKHPHE [EP 10], for which the binding entry in test [1] is on record as “binds”.

Consider SHHHKHPKA [EP 9], for which the binding entry in test [1] is reported as “binds”.

On to THHHKHPGT [EP 11], for which the binding entry in test [1] is “binds”.

Consider THHHKHPHA [EP 1], for which the binding result in test [1] is recorded as “binds”.

For THHHKHPGE [EP 23], the binding entry in test [1] is reported as “binds”.
